This data set in a line: Secondary structure by CD and FTIR spectroscopy.

Entries after “also recorded” stand apart in the source; their conditions may differ. Read-outs that look alike come from different tables or passages of the source.

In the case of “Ac-AQQiEcItNVWDKEItMyFnVSE-NH2 (AQQIECLTNVWDKELTMYFNVSE; D-residues) [peptide #11]”, the “Contains α-sheet Structure?” value is “form α-sheet and yes”. For the same substance, the “Contains α-sheet Structure?” value (listed as Control 3) is “adopt α-sheet structure”. Regarding “Ac-MNWESkGEwIRMRYGtmLSNGnM-NH2 (MNWESKGEWLRMRYGTMLSNGNM; D-residues) [peptide #19]”, the “Contains α-sheet Structure?” value was “do not and no”. Also, where the note is “listed as Control2”, the “Contains α-sheet Structure?” value is “does not form α-sheet”. “Ac-RGEMNLSWMNEYSGWTMNLKMGR-NH2 [peptide #20]”: the “Contains α-sheet Structure?” value was “do not and no”. Where the note is “listed as llas90”, the “Contains α-sheet Structure?” value is recorded as “does not form α-sheet”. Take “Ac-RGEaWmYiKNNLSETmMsNmWGR-NH2 [peptide #12]”: the “Contains α-sheet Structure?” value was “form α-sheet and yes”. Also, the “Contains α-sheet Structure?” value (listed as Control6) is on record as “forms α-sheet; also recorded: α-sheet structure”. As to “Ac-RGEmNiSwMNEYSGWtMnLkMGR-NH2 [peptide #1]”, the “Contains α-sheet Structure?” value was “adopt α-sheet structure and form α-sheet and yes”. In the case of “Ac-RGNwNeSkMNEYSGWmLmLtMGR-NH2 (RGNWNESKMNEYSGWMLMLTMGR; D-residues) [peptide #6]”, the “Contains α-sheet Structure?” value is “form α-sheet and yes”. Further, the “Contains α-sheet Structure?” value (listed as Control5) is listed as “adopts α-sheet structure”. Regarding “Ac-WRPwAiDgMNTBKQRkAsVyLQP-NH2 (WRPWAIDQMNTVKQRKASVYLQP; D-residues) [peptide #13]”, the “Contains α-sheet Structure?” value is “form α-sheet and yes”. Also, the “Contains α-sheet Structure?” value (listed as Control 4) is “adopt α-sheet structure”. For the substance RGEmNlSwMNEYSGWtMnLkMGR [peptide #7], the “Contains α-sheet Structure?” value is on record as “adopt α-sheet structure”.

The values above are taken from patent publication US9896487B2, “Amyloidosis-inhibiting polypeptides and their use” (UNIVERSITY OF WASHINGTON THROUGH ITS CENTER FOR …, priority 2013, dated 2018).
